Laboratory results: PubChem BioAssay AID485314 (National Center for Advancing Translational Sciences (NCATS), 2010)
Values joined by “and” are separate entries in the source; they are usually repeats but may differ in a detail not shown here. Equal entries are not always repeated. In all, about 340,000 compounds went through this assay and about 4,500 (1.3%) were called active. Inconclusive means that the source gave no clear call. Such entries were picked first, then a sample of the others. The call rests on the fitted dose curve; in most records, active means well fitted inhibition curve with a large enough effect; inconclusive means small, poorly fitted or top-dose-only effect, or another doubt; inactive means no such curve, though single readings can be large or run the other way. A potency beside an inconclusive call is a rough fit, not a confirmed value.
On the % scale 0 is the no-effect control and ±100 the full control effect; potency means the concentration at half of the fitted maximal effect.

Each compound was assayed against DNA polymerase beta (Homo sapiens) (UniProt P06746) (assay: qHTS Assay for Inhibitors of DNA Polymerase Beta). Settings: Pol beta primer extension/strand displacement, fluorescence kinetic; activity change, negative = inhibition: at 114 µM (top of the series).
Procedure, shortened: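 Reaction started by 50 nM substrate onto compound-treated Pol beta (10 nM, 15 min preincubation, room temperature); plates read at 0 min and 10 min. Normalized concentration-effect data fitted by four-parameter Hill equation.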
With `COC(=O)c1ccc(NC(=O)C23CCC(C)(C(=O)O2)C3(C)C)cc1` (stereo unspecified) the Potency was inconclusive: 1.26 µM [inhibitor, partial curve].
`CCCOc1cccc(C(=O)N/N=C/c2ccoc2)c1` was tested, and the Potency was inconclusive: 15.8 µM [inhibitor, full curve].
For `COc1ccc(C(=O)NCCc2c[nH]c3ccc(OC)cc23)cc1`, the Potency was inconclusive: 89.1 µM [inhibitor, single point].
`COc1cccc(NC(=O)c2oc3ccccc3c2NC(=O)c2ccc(C(F)(F)F)cc2)c1` was tested, and the Potency was “inactive”.
In the case of `COc1cccc2c1Oc1ncccc1N(C(=O)CCC(=O)NCc1ccc(N(C)C)cc1)C2`, the Potency is reported as “inactive”.
For `COc1cc(/C=C(\C#N)c2nc3ccc(C)cc3[nH]2)c([N+](=O)[O-])cc1OC`, the Potency was inconclusive: 44.7 µM [inhibitor, partial curve].
For `O=C(O)CN1C(=O)/C(=C\c2cccc(OCc3ccccc3F)c2)SC1=S`, the Potency was “inactive”.
`Cc1ccc(/C=C/C(=O)N2CCN(S(=O)(=O)c3c(C)c(C)cc(C)c3C)CC2)o1` was tested, and the Potency was inconclusive: 70.8 µM [inhibitor, single point].
`COc1ccc(NC(=O)CSc2nc3nc(C)c(Cc4ccc(C)cc4)c(C)n3n2)cc1OC` was tested, and the Potency was “inactive”.
In the case of `COc1cc(Cl)c(C)cc1NC(=O)c1cc2ccc3cccnc3c2[nH]1`, the Potency is reported as active: 39.8 µM.
`O=C(COC(=O)CSCC(=O)N1CCCCC1)Nc1ccc(Cl)cc1` was tested, and the Potency was inconclusive: 2.82 µM [inhibitor, full curve, poor fit].
`N#CC1=C(S)N(c2ccc(F)cc2)C(c2ccco2)NC1=O` (stereo unspecified) was tested, and the Potency was “inactive”.
For `CCCCN1CC(c2nc3ccccc3n2CCCCOc2ccc(C)cc2C)CC1=O` (stereo unspecified), the Potency was inconclusive: 79.4 µM [inhibitor, single point].
For `Cn1ccc(-c2ccccc2)n1`, the Potency was “inactive”.
`Cc1cc(SCc2ccc(F)cc2)nc(=O)[nH]1` was tested, and the activity change, negative = inhibition was inconclusive: -56.4% [inhibitor].
`CCc1ccc(NC(=O)c2cc(S(=O)(=O)N3CCCCCC3)ccc2F)cc1` was tested, and the Potency was “inactive”.
With `Cc1ccc(NC(=O)Nc2nnc(SCC(=O)Nc3ccc(F)cc3F)s2)cc1` the Potency was “inactive”.
For `CCOc1nc2cnccc2n(CC(=O)Nc2c(C)cccc2CC)c1=O`, the Potency was inconclusive: 0.158 µM [inhibitor, full curve, poor fit].
In the case of `O=C(O)C1CCN(c2ccc([N+](=O)[O-])cc2[N+](=O)[O-])CC1`, the activity change, negative = inhibition is reported as inconclusive: -37.4% [inhibitor].
For `COc1ccc2oc(-c3ccco3)cc(=O)c2c1`, the Potency was active: 50.1 µM.
For `Cc1ccc(NC(=S)NC2CCN(Cc3ccccc3)CC2)cc1`, the Potency was inconclusive: 89.1 µM [inhibitor, single point].
`Cc1ccc(S(=O)(=O)ON2C(=O)c3ccccc3C2=O)c(C)c1` was tested, and the Potency was “inactive”.
With `O=c1cc(CSc2nnnn2-c2ccccc2)[nH]c2[nH]n(-c3ccccc3)c(=O)c12` the Potency was “inactive”.
In the case of `O=[N+]([O-])c1ccc2c(c1)c1ccccc1n2CCO`, the Potency is reported as inconclusive: 17.8 µM [inhibitor, partial curve, poor fit].
`O=C(COC(=O)c1cc(-c2ccco2)nc2ccccc12)NCc1ccccc1` was tested, and the Potency was inconclusive: 31.6 µM [inhibitor, partial curve].
`Cc1nnc(NC(=O)Cc2cccs2)s1` was tested, and the Potency was active: 35.5 µM.
With `COc1ccc(/C=C2\SC(=S)N(CCC(=O)Nc3ccc(C(=O)O)cc3)C2=O)cc1` the Potency was inconclusive: 89.1 µM [inhibitor, single point].
For `Nc1nc(CN2CCN(C(=O)c3ccco3)CC2)nc(Nc2cccc(Cl)c2)n1`, the Potency was inconclusive: 79.4 µM [inhibitor, single point].
For `Cc1ccc2c(c1)N(CC(=O)Nc1ccccc1F)C(=O)CO2`, the Potency was inconclusive: 0.794 µM [inhibitor, full curve, poor fit].
`COc1ccc2cc3cc(C(=O)Nc4ccc5c(c4)OCCO5)oc3nc2c1` was tested, and the Potency was active: 12.6 µM.
With `O=C(N/N=C/c1cccc([N+](=O)[O-])c1)c1ccccc1-n1cccc1` the Potency was inconclusive: 89.1 µM [inhibitor, single point].
With `Cc1ccccc1NC(=O)CCS(=O)(=O)c1ccc(Br)cc1` the Potency was inconclusive: 39.8 µM [inhibitor, single point].
In the case of `NC(=O)CSc1nnc(-c2cnccn2)n1-c1ccccc1`, the Potency is reported as inconclusive: 0.501 µM [inhibitor, full curve, poor fit].
For `Cc1cc(OCC(=O)Nc2ccncc2)c(C)cc1Br`, the Potency was inconclusive: 89.1 µM [inhibitor, single point].
With `N#Cc1c(SCC(=O)Nc2nccs2)sc2c(O)cc(=O)[nH]c12` the Potency was active: 8.91 µM.
With `COc1ccc(CC(=O)N2CC(=O)Nc3ccc(F)cc3C2c2ccccc2)cc1` (stereo unspecified) the Potency was inconclusive: 39.8 µM [inhibitor, single point].
With `Cc1ccccc1CNC(=O)Cn1c(=O)c2cccn2c2cccnc21` the Potency was inconclusive: 0.794 µM [inhibitor, full curve, poor fit].
`O=C(CN1C(=O)COc2ccccc21)N1CCc2ccccc21` was tested, and the Potency was inconclusive: 100 µM [inhibitor, single point].
`Cc1nc2ccn(Cc3ccco3)c(=O)c2cc1C(=O)NCc1ccc(Cl)cc1` was tested, and the Potency was “inactive”.
For `COC(=O)c1ccc(NC(=O)Cn2c(=O)oc3ccccc32)cc1`, the Potency was inconclusive: 20 µM [inhibitor, full curve].
For `CCOC(=O)N1CCN(S(=O)(=O)c2ccc(Br)s2)CC1`, the Potency was inconclusive: 0.112 µM [inhibitor, full curve].
With `CCOc1ccc(C(=O)O/N=C(\N)c2ccc([N+](=O)[O-])cc2)cc1OCC` the Potency was inconclusive: 39.8 µM [inhibitor, partial curve].
For `Cc1nn2c(c1-c1ccccc1)NC1=C(C(=O)CCC1)C2c1ccccc1` (stereo unspecified), the Potency was inconclusive: 5.01 µM [inhibitor, full curve, poor fit].
In the case of `COc1ccccc1N1CCN(CC(O)COc2ccc(Cl)c(C)c2)CC1` (stereo unspecified), the Potency is reported as “inactive”.
For `O=C(CSc1n[nH]c(-c2ccc(F)cc2)n1)N1CCN(c2ccc(F)cc2)CC1`, the Potency was inconclusive: 89.1 µM [inhibitor, single point].
With `CCOC(=O)c1cc(S(=O)(=O)Nc2ccccc2)[nH]n1` the Potency was inconclusive: 89.1 µM [inhibitor, single point].
In the case of `CCOc1ccccc1NC(=O)c1nnn(CC(=O)Nc2ccc3c(c2)OCO3)c1N`, the Potency is reported as inconclusive: 70.8 µM [inhibitor, single point].
With `Cc1nn(Cc2ccccc2)c(N)c1-c1ccccc1` the Potency was inconclusive: 100 µM [inhibitor, partial curve].
In the case of `O=C(NCCc1ccc(Cl)cc1)C1CCN(c2cnccn2)CC1`, the Potency is reported as inconclusive: 39.8 µM [inhibitor, partial curve].
`Cc1ccc(-n2nc3c(=O)n(CCCC(=O)NCc4ccc(Cl)cc4)nc(C)c3c2C)cc1` was tested, and the activity change, negative = inhibition was inconclusive: -89.7% [inhibitor].
In the case of `CC(O)[C@@H](O)[C@H]1CNc2nc(N)[nH]c(=O)c2N1` (stereo partly specified), the Potency is reported as “inactive”.
`CCCCN1Cc2cc(C(=O)c3cc(OC)ccc3O)cnc2NC1=O` was tested, and the Potency was inconclusive: 7.08 µM [inhibitor, full curve, poor fit].
For `CCOC(=O)c1c(C)[nH]c(C(=O)COC(=O)c2ccc(O)cc2O)c1C`, the Potency was inconclusive: 89.1 µM [inhibitor, single point].
In the case of `COc1ccc(OC)c(NC(=O)c2nc(S(=O)(=O)Cc3ccc(F)cc3)ncc2Cl)c1`, the Potency is reported as inconclusive: 17.8 µM [inhibitor, full curve, poor fit].
In the case of `CCOC(=O)N[C@H](Cc1c[nH]c2ccccc12)C(=O)Nc1cccc(Cl)c1`, the Potency is reported as inconclusive: 0.316 µM [inhibitor, full curve, poor fit].
`CCOCCCN(Cc1ccco1)C(=O)c1cc2c(s1)-c1c(C)cccc1OC2` was tested, and the Potency was “inactive”.
For `COc1ccc(Cl)cc1Nc1nc(-c2cccnc2)cs1`, the Potency was inconclusive: 7.94 µM [inhibitor, full curve, poor fit].
For `O=S(=O)(NCCc1nnc2ccc(SCc3ccccc3Cl)nn12)c1ccccc1`, the Potency was “inactive”.
In the case of `CC[C@@H]1CC=C[C@H]2[C@H]1C(=O)N(Cc1ccccc1)[C@H]2c1ccoc1`, the activity change, negative = inhibition is reported as inconclusive: -37% [inhibitor].
In the case of `COc1cc2nc(Nc3cccc(F)c3)nc(N)c2cc1OC`, the Potency is reported as “inactive and inconclusive: 25.1 µM [inhibitor, full curve, poor fit]”.
With `O=C(CCN1C(=O)/C(=C/C=C/c2ccccc2)SC1=S)Nc1cccnc1` the Potency was “inactive”.
For `CCCCSc1nnc2c(n1)OC(c1ccc(Br)s1)Nc1ccccc1-2` (stereo unspecified), the Potency was “inactive”.
With `O=C(c1ccc2ccccc2c1)N1CCN(S(=O)(=O)/C=C/c2ccccc2)CC1` the Potency was “inactive”.
In the case of `Cc1ccc2c(CC(=O)N(Cc3ccc(N(C)C)cc3)Cc3ccco3)coc2c1C`, the Potency is reported as “inactive”.
In the case of `Cc1nc2c(C(=O)NCCc3ccccc3Cl)c[nH]n2c(=O)c1Cl`, the Potency is reported as inconclusive: 79.4 µM [inhibitor, single point].
`O=C(Cn1cnc2sc(-c3ccccc3)cc2c1=O)NCc1ccco1` was tested, and the Potency was active: 7.94 µM.
For `COc1ccc(N2CCOCC2)c(NC(=O)c2cccc3ccccc23)c1`, the Potency was inconclusive: 89.1 µM [inhibitor, single point].
With `N/C(Cc1cccc2ccccc12)=N\OC(=O)Cc1cccs1` the Potency was inconclusive: 100 µM [inhibitor, single point].
In the case of `Cc1cc(=O)[nH]c(N/N=C/c2ccc(-c3ccc(F)cc3)o2)n1`, the Potency is reported as inconclusive: 79.4 µM [inhibitor, single point].
`NS(=O)(=O)c1ccc(N/N=C/c2ccc(O)cc2O)c([N+](=O)[O-])c1` was tested, and the Potency was active: 25.1 µM.
With `Cc1c(CCC(=O)N2CCC(C(=O)O)(c3ccccc3)CC2)c(=O)oc2cc3oc4c(c3cc12)CCCC4` the Potency was “inactive”.
